Data as given in patent publication US7485434B2, “Method for screening compounds for those that modulate transducers of regulated CREB activity” (The Salk Institute for Biological Studies, priority 2005, dated 2009).
For at least one compound, name, drawing or mass did not settle the structure.

Legend:
[1] = system: SIK2; experiment: Western blot of phospho (Ser587) SIK2 in GST-SIK2 expressing cells; format: cell-based; conditions: phospho-Ser(587) specific antiserum
[2] = system: TORC2; experiment: Immunofluorescence of TORC localization in ATYB1 fibroblasts; format: cell-based, human
Description: Specifically, FIG. 3A presents fluorescence microscopic analysis of Flag-tagged TORC2 in human ATYBI fibroblasts treated with forskolin (10 μM) or control vehicle for 30 minutes as indicated.
FIG. 3B illustrates the effect of exportin inhibitor leptomycin B (LMB) on nuclear targeting of TORC2 in transfected ATYB1 fibroblasts. DAPI staining is shown alongside to indicate nuclei.
FIG. 7C, top panels, illustrate the effect of SIK2 (or related family members) on TORC2 subcellular localization. Immunofluorescence microscopy is presented for ATYB1 cells transfected with Flagtagged TORC2 plus wild-type or PKA phosphorylation defective SIK2 (Ser587Ala) as indicated. DAP1 staining is shown below each panel. FIG. 7C, bottom panels, illustrate the effect of Ser171 Ala mutagenesis on cellular localization of TORC2. Treatment with forskolin is indicated.
FIG. 13, top panels, illustrates the cellular localization of endogenous TORC proteins in ATYBI cells using TORC specific antiserum. The effect of forskolin (10 μM, 30 minutes) and leptomycin B (LMB, 10 ng/ml, 2 hr) treatment is shown. DAP1 staining is shown below to visualize the nuclei. FIG. 13, bottom panel, illustrates the effect of LMB treatment on TORC1 localization in ATYBI cells transfected with flag-tagged TORC1 expression vector. TORC1 localization was followed using anti-flag antiserum. DAP1 staining is shown alongside.
Human ATYBI fibroblasts on coverslips were fixed with 4% paraformadehyde in PBS for 20 min. For staining of transient transfectants, cells were fixed 40 h after transfection. Fixative was quenched with 0.1 M glycine prior to permeabilization with 0.1% TX-100/PBS for 2 min. Nonspecific sites were blocked with 3% BSA/PBS prior to staining with anti-FLAG M2 monoclonal antibody (1:2000) or anti-pan TORC antiserum (1:1000) in 3% BSA/PBS. […] All steps were performed at 25° C.
Immunofluorescence studies were performed to determine the mechanism by which cAMP triggers recruitment of TORC2 to the promoter. […]

[3] = system: gluconeogenic genes (PEPCK, PGC-1α, G6Pase); experiment: Q-PCR of gluconeogenic gene expression in primary rat hepatocytes; format: cell-based
Description: Specifically, FIG. 17A illustrates the effect of TORC2 on induction of gluconeogenic genes (PEPCK, PGC-1α, G6Pase) by FSK (10 μM, 2 hr) in cultured primary rat hepatocytes infected with TORC2 or control GFP adenovinus as indicated.
FIGS. 18A-18H illustrate that the induction of the AMP kinase family member SIK1 by CREB during fasting attenuates the gluconeogenic program. Specifically, FIG. 18A illustrates the time course of PEPCK gene expression in primary rat hepatocytes following exposure to FSK. mRNA levels were determined by Q-PCR analysis.
FIG. 18C illustrates the effect of CHX pretreatment on induction of gluconeogenic genes (PEPCK, PGC-1α, G6Pase) by glucagon in primary rat hepatocytes. Relative mRNA levels are shown.
FIG. 19B summarizes the effect of SIK1 RNAi on gluconeogenic gene expression in primary rat hepatocytes, presenting Q-PCR analysis showing the relative induction of PEPCK, PGC-1α, and G6Pase mRNAs by glucagon in cells infected with control (US) or SIK1 RNAi expressing adenoviruses.
FIG. 20D summarizes the effect of AlCAR on expression of gluconeogenic genes (PEPCK, PGC-1α) in primary rat hepatocytes. Cells infected with mutant Ser171Ala TORC2 (171) adenovinus indicated. Treatment with AICAR and FSK is shown.
Rat primary hepatocytes were prepared from 200-300g of Sprague-Dawley rats by collagenase perfusion method as described previously (see Koo et al., 2004). […]

## C=C[C@@]1(C)CC(=O)[C@]2(O)[C@@]3(C)[C@@H](O)CCC(C)(C)[C@@H]3[C@H](O)[C@H](OC(C)=O)[C@@]2(C)O1 [forskolin, Forskolin]
[1]
  phosphorylation of SIK2 at Ser587: induced phosphorylation of SIK2 at Ser587
[2]; ATYB1 cells
  time to nuclear accumulation of TORC: ≤ 30 min
[2]; ATYB1 cells, forskolin 10 μM or LMB 10 ng/ml
  nuclear accumulation of TORC: promoted nuclear accumulation of TORC2
[2]; wild-type SIK2
  nuclear entry of TORC2 in SIK2 over-expressing cells: promoted nuclear entry of TORC2
[3]
  time of return of PEPCK mRNA to near baseline: 4 h
  time to maximal PEPCK mRNA levels: 2 h
